66 molecules from the supplement of paper PMC8104966 can be followed below.

This is one part of the list. This data set is noisy: repeats of one test often differ as much as different tests do.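 U2OS cells carrying ACE2 were mixed with U2OS cells carrying full-length spike, and fusion was scored by imaging as the share of nuclei showing both cell types' fluorescent markers. A compound counts as an inhibitory hit when it is non-toxic and its fusion z-score falls below -3, meaning more than three standard deviations below the plate's DMSO wells.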

The test deals with U2OS ACE2 x SARS-CoV-2 spike co-culture. In words: cell-cell fusion (fraction fused) z-score vs plate DMSO control; higher = more fusion. The note with it: 30 µM; 5 h; toxicity class: non-toxic, passed QC.
Take `Cc1nc2ccccc2n1Cc1ccc(Cl)cc1`: the “cell-cell fusion (z-score)” value is active: -4.77.
Next, `CC(C)(C)NCC(O)c1ccccc1Cl.Cl` (stereo unspecified) [Tulobuterol hydrochloride]: active: -4.37; `CC(C)(C)NCC(O)c1ccccc1Cl.Cl` (stereo unspecified): inactive: -1.09; `COc1ccc(F)c(F)c1C(=O)c1cnc(NC2CCN(S(C)(=O)=O)CC2)nc1N`: inactive: 2.35.
For `C[C@H]1C2Cc3ccc(O)cc3[C@@]1(C)CCN2CC1CC1` (single isomer, unassigned; (+)) [(+)-Cyclazocine], the “cell-cell fusion (z-score)” value was inactive: 1.32.
For `Cc1ccc(-c2csc3ncnc(SCCC(=O)O)c23)cc1`, the “cell-cell fusion (z-score)” value was inactive: 1.65.
Regarding `Cc1nnc(C(C)C)n1C1CC2CCC(C1)N2CC[C@H](NC(=O)C1CCC(F)(F)CC1)c1ccccc1` (stereo partly specified) [Maraviroc], the “cell-cell fusion (z-score)” value was inactive: 1.52.
Then `NC[C@H]1O[C@H](O[C@H]2C(O[C@@H]3O[C@H](CO)[C@@H](O)[C@H]3O)[C@@H](O)[C@H](N)C[C@@H]2N)[C@H](N)[C@@H](O)[C@@H]1O.O=S(=O)(O)O` (stereo partly specified), with inactive: 0.484; and `O=C(O)C1CCNCC1` [Isonipecotic acid], with inactive: 2.31; and `CCN1CCN(C(=O)N[C@@H](C(=O)N[C@@H]2C(=O)N3[C@@H]2SC(C)(C)[C@@H]3C(=O)[O-])c2ccccc2)C(=O)C1=O.[Na+]` [Piperacillin sodium salt], with inactive: 2.7.
Next, `COc1ccc(-c2cc(=O)c3c(OC)cc(OC)cc3o2)cc1`: inactive: 1.29; `O=C(O)Cc1ccccc1Nc1c(Cl)cccc1Cl` [Diclofenac]: inactive: 0.809.
Turning to `CNNCc1ccc(C(=O)NC(C)C)cc1.Cl` [Procarbazine hydrochloride (Matulane)], the “cell-cell fusion (z-score)” value was inactive: 1.43.
On to `CO[C@H]1C[C@H]2CC[C@@H](C)[C@@](O)(O2)C(=O)C(=O)N2CCCC[C@H]2C(=O)O[C@H]([C@H](C)C[C@@H]2CC[C@H](OC(=O)C(C)(CO)CO)[C@H](OC)C2)CC(=O)[C@H](C)/C=C(\C)[C@@H](O)[C@@H](OC)C(=O)[C@H](C)C[C@H](C)/C=C/C=C/C=C/1C` [Temsirolimus (Torisel)], for which the “cell-cell fusion (z-score)” value was inactive: 0.708.
In the case of `CO[C@H]1C[C@H]2CC[C@@H](C)[C@@](O)(O2)C(=O)C(=O)N2CCCC[C@H]2C(=O)O[C@H]([C@H](C)C[C@@H]2CC[C@H](OC(=O)C(C)(CO)CO)[C@H](OC)C2)CC(=O)[C@H](C)/C=C(\C)[C@@H](O)[C@@H](OC)C(=O)[C@H](C)C[C@H](C)/C=C/C=C/C=C/1C`, the “cell-cell fusion (z-score)” value was active: -4.9.
In the case of `NS(=O)(=O)c1cc2c(cc1C(F)(F)F)NCNS2(=O)=O`, the “cell-cell fusion (z-score)” value is inactive: 2.02.
Next, `CC1=Nc2ccc(Cl)cc2S(=O)(=O)N1` [Diazoxide]: inactive: 3.45; `CC(C)NCC(O)COc1ccc(COCCOC(C)C)cc1.CC(C)NCC(O)COc1ccc(COCCOC(C)C)cc1.O=C(O)/C=C/C(=O)O` (stereo unspecified) [Bisoprolol hemifumarate salt]: inactive: 2.91.
Next, `CCC(=O)NC[C@@H]1C[C@H]1c1cccc2c1CCO2` [Tasimelteon]: inactive: 1.67.
As to `C[C@H](O)C(=O)C1=Nc2c(nc(N)[nH]c2=O)NC1` [Sepiapterin], the “cell-cell fusion (z-score)” value was inactive: 1.91.
In the case of `O=C(/C=C/c1ccc(O)c(O)c1)OCCc1ccccc1` [Caffeic acid phenethyl ester], the “cell-cell fusion (z-score)” value is inactive: 1.56.
Take `COC(=O)Nc1nc2cc(C(=O)c3ccccc3)ccc2[nH]1`: the “cell-cell fusion (z-score)” value is inactive: 0.722.
With `OC1(c2ccc(Cl)c(C(F)(F)F)c2)CCN(CCCC(c2ccc(F)cc2)c2ccc(F)cc2)CC1`, the “cell-cell fusion (z-score)” value is inactive: 3.48.
Then `NC(CO)(CO)CO.O=C(c1ccccc1)c1ccc2n1CCC2C(=O)O` (stereo unspecified), with inactive: 2.46.
Then `NC(CO)(CO)CO.O=C(c1ccccc1)c1ccc2n1CCC2C(=O)O` (stereo unspecified) [Ketorolac tris salt], with inactive: 2.77.
Then `CNC(=O)c1cc(Oc2ccc(NC(=O)Nc3ccc(Cl)c(C(F)(F)F)c3)cc2)ccn1.Cc1ccc(S(=O)(=O)O)cc1` [Sorafenib Tosylate], with active: -12.3; and `CNC(=O)c1cc(Oc2ccc(NC(=O)Nc3ccc(Cl)c(C(F)(F)F)c3)cc2)ccn1.Cc1ccc(S(=O)(=O)O)cc1` [Sorafenib (Nexavar)], with active: -5.34.
Regarding `Cc1c([N+](=O)[O-])cc2[nH]c(=O)c(=O)[nH]c2c1CN1CCCC1.O=S(=O)(O)CCO`, the “cell-cell fusion (z-score)” value is inactive: 2.82.
For `COc1ccc(-c2cc3ncc(C)n3c(Nc3ncccc3C(N)=O)n2)cc1OC.Cl` [BAY 61-3606 hydrochloride hydrate], the “cell-cell fusion (z-score)” value was inactive: -1.02.
Take `Oc1cc(Cl)ccc1Oc1ccc(Cl)cc1Cl`: the “cell-cell fusion (z-score)” value was inactive: -2.88.
As for `Cc1ccc(Nc2nccc(N(C)c3ccc4c(C)n(C)nc4c3)n2)cc1S(N)(=O)=O` [Pazopanib], the “cell-cell fusion (z-score)” value is inactive: 1.17.
With `O=C1CC[C@@H](C(=O)N2CSC[C@H]2C(=O)O)N1`, the “cell-cell fusion (z-score)” value is inactive: 1.94.
Then `CC(C)C(=O)Oc1ccc(CO)cc1[C@H](CCN(C(C)C)C(C)C)c1ccccc1.O=C(O)/C=C/C(=O)O` [Fesoterodine fumarate], with inactive: 3.4.
On to `CCN(CC)CC#CCOC(=O)C(O)(c1ccccc1)C1CCCCC1.Cl` (stereo unspecified) [Oxybutynin Chloride], for which the “cell-cell fusion (z-score)” value was inactive: 2.35.
Then `CCN(CC)CC#CCOC(=O)C(O)(c1ccccc1)C1CCCCC1.Cl` (stereo unspecified), with inactive: 4.68; and `OC[C@H]1O[C@H](Oc2cc(O)cc(/C=C/c3ccc(O)cc3)c2)[C@H](O)[C@@H](O)[C@@H]1O`, with inactive: 1.38.
For `C=CCc1ccc(O)c(-c2ccc(O)c(CC=C)c2)c1` [Honokiol], the “cell-cell fusion (z-score)” value was inactive: -0.711.
`C[N+](C)(C)CC(O)CC(=O)O.[Cl-]` (stereo in doubt) [L-Carnitine hydrochloride]: the “cell-cell fusion (z-score)” value is inactive: 3.16.
Next, `CC1(C)S[C@@H]2[C@H](NC(=O)[C@H](C(=O)[O-])c3cccs3)C(=O)N2[C@H]1C(=O)[O-].[Na+].[Na+]`: inactive: 2.97; `CN(C)CCC(c1ccc(Cl)cc1)c1ccccn1.O=C(O)/C=C\C(=O)O` (racemic) [(±)-Chlorpheniramine maleate]: inactive: 0.865.
`O=C(Nc1cccnc1)N1CCC(Cc2cccc(Oc3ccc(C(F)(F)F)cn3)c2)CC1` [PF 3845 hydrate]: the “cell-cell fusion (z-score)” value was inactive: -0.901.
As to `CN1CC(CNC(=O)OCc2ccccc2)C[C@H]2c3cccc4c3c(cn4C)CC21` (stereo partly specified), the “cell-cell fusion (z-score)” value is inactive: 0.305.
Next, `COc1cc(OC)c2c(c1)O[C@H](c1ccc(OC)c(OC)c1)[C@@H](O)C2`: inactive: 1.5; `NCC(O)CC(=O)O` (stereo unspecified): inactive: 2.22.
Then `Cc1cc2c(cc1S(N)(=O)=O)S(=O)(=O)CCC2`, with inactive: 1.35.
Next, `CC(C)(S)C(N)C(=O)O.NCCO` (stereo unspecified): inactive: 1.33; `OCCn1cc(-c2cnc3nnn(Cc4ccc5ncccc5c4)c3n2)cn1`: inactive: 1.28.
Regarding `O=C([O-])CCC(=O)OC[C@@H](NC(=O)C(Cl)Cl)[C@H](O)c1ccc([N+](=O)[O-])cc1.[Na+]`, the “cell-cell fusion (z-score)” value was inactive: 0.198.
Next, `O=C([O-])P(=O)([O-])[O-].[Na+].[Na+].[Na+]`: inactive: 1.86; `Cc1cc(O)c2c(c1)C(=O)c1cccc(O)c1C2=O` [Chrysophanic acid (Chrysophanol)]: inactive: 1.46.
Next, `Cc1cc(O)c2c(c1)C(=O)c1cccc(O)c1C2=O` [Chrysophanic Acid]: inactive: 1.3.
With `CCN(CC)CCCC(C)Nc1c2ccc(Cl)cc2nc2ccc(OC)cc12.Cl.Cl` (stereo unspecified), the “cell-cell fusion (z-score)” value is inactive: 1.38.
Then `O=C([O-])c1ccccc1[O-].[Bi+3].[OH-]` [Bismuth subsalicylat], with inactive: 1.94; and `C=CCCCCCCCCC(=O)[O-].C=CCCCCCCCCC(=O)[O-].NCCO.NCCO.[Zn+2]`, with inactive: 0.586; and `Cl.O=C1NCC2(CCN(CCc3ccccc3)CC2)O1` [Fenspiride hydrochloride], with inactive: 3.08.
Then `Cl.O=C1NCC2(CCN(CCc3ccccc3)CC2)O1`, with inactive: 1.24; and `CCCC(C)C1(CC)C(=O)N=C(O)NC1=O` (stereo unspecified), with inactive: 2.17; and `CS(=O)(=O)O.C[C@H]1COc2c(C3(N)CC3)c(F)cc3c(=O)c(C(=O)O)cn1c23`, with inactive: 1.6.
In the case of `N=C(N)NCCCCNC(=N)N.O=S(=O)(O)O` [Arcaine sulfate], the “cell-cell fusion (z-score)” value is inactive: 2.22.
Then `CC(C)N(CCC(=O)c1ccc2ccccc2c1)Cc1ccccc1.Cl`, with inactive: 2.57; and `CC(CCC(=O)O)[C@H]1CCC2C3C(C[C@H](O)[C@@]21C)[C@@]1(C)CC[C@@H](O)C[C@H]1C[C@H]3O` (stereo partly specified), with inactive: 2.77; and `CCS(=O)(=O)N1CC(CC#N)(n2cc(-c3ncnc4[nH]ccc34)cn2)C1.O=P(O)(O)O` [Baricitinib Phosphate], with inactive: -2.67.
Next, `Cl.c1ccc(C2CN3CCSC3=N2)cc1` (stereo unspecified): inactive: 2.04; `Cl.c1ccc(C2CN3CCSC3=N2)cc1` (stereo unspecified) [Tetramisole hydrochloride]: inactive: 1.14; `COc1cc2c(cc1O)CCNC2C` (stereo unspecified): inactive: 1.12.
Next, `COC(=O)C[C@H]1C(C)(C)[C@@H](O)[C@@H]2CC3=C4CC(O)O[C@@H](c5ccoc5)[C@]4(C)CCC3[C@@]1(C)C2=O` (stereo partly drawn) [3,16-DIDEOXYMEXICANOLIDE-3beta-DIOL]: inactive: 3.05.
